From PubChem BioAssay AID588497 (NMMLSC, 2011)
In all, about 360,000 compounds went through this assay and about 780 (0.22%) were called active. This list was built around the results that the source calls inconclusive (neither active nor inactive); the mix of calls is not that of the screen. No stated cut-off is given here; in the data, active means inhibition above about 35% (passing the limit was not always enough); inconclusive means no clear call, values can overlap the other calls.

The compounds below were run on Botulinum neurotoxin type F light chain protease (Clostridium botulinum) (assay: BoNT/F light chain protease inhibitors, primary screen, biochemical, flow cytometry, MLPCN library (AID 588497; further: plate controls were buffer without enzyme for full effect and enzyme alone for no effect)). Conditions: Multiplex microsphere protease cleavage assay, at 10 µM, stronger effect = higher value.

Which inhibition does the source give for `O=C(c1ccc(F)cc1)N1CCN(c2ccc(N3CCOCC3)nn2)CC1` here?
The inhibition was inactive: -2.3%.

Which inhibition does the source give for `Cc1cccc(N2Cc3ccc(Br)cc3C2)c1` here?
Its inhibition is inconclusive: -43.3%.

How did the inhibition turn out when `Nn1cnc2scc(-c3ccc(Cl)cc3)c2c1=O` was run?
The inhibition was inactive: 18.3%.

`COc1ccc(OC)c(NC(=O)CSc2nnc(-c3cnccn3)n2C)c1` was tested. Which inhibition did it give?
The inhibition was inactive: 7%.

`Cc1ccc2c(CC(=O)NCC3COc4ccccc4O3)coc2c1` (stereo unspecified) was tested. Which inhibition did it give?
The inhibition was inconclusive: -14.1%.

For `COc1cccc(CC(=O)N2CCCC(CO)(Cc3ccc(F)cc3F)C2)c1` (stereo unspecified), which inhibition is on record?
Its inhibition is inconclusive: -16.4%.

With `CN(c1ccccc1)P(=O)(N(C)c1ccccc1)N(C)c1ccccc1` as the compound, how does the inhibition read?
The inhibition was inactive: 2%.

`COC(=O)C1=C(O)/C(=C\c2cc(C)n(-c3ccc(F)cc3)c2C)N=C1C` was tested. Which inhibition did it give?
The inhibition was inactive: 3.4%.

For `Cc1cc(C)cc(OCC(=O)Nc2cnn(CCCC(=O)O)c2)c1`, which inhibition is on record?
The inhibition was inactive: -2.5%.

With `O=C(COC(=O)C12CC3CC(CC(C3)C1)C2)NC12CC3CC(CC(C3)C1)C2` as the compound, how does the inhibition read?
Its inhibition is inconclusive: 88.9%.

How did the inhibition turn out when `COc1ccccc1/C=N/N=C(/N)N[N+](=O)[O-]` was run?
Its inhibition is inactive: -11.3%.

How did the inhibition turn out when `Cc1sc2nc(CSCC(=O)Nc3cc(F)ccc3F)[nH]c(=O)c2c1C` was run?
The inhibition was inconclusive: 7.3%.

With `CC(=O)N1CCN(CC(c2ccccc2)c2ccccc2)CC1` as the compound, how does the inhibition read?
The inhibition was inconclusive: -11.9%.

Which inhibition does the source give for `Cc1ccc(N(CC(O)COCc2ccco2)S(=O)(=O)c2ccc(C)cc2)cc1` (stereo unspecified) here?
The inhibition was inactive: 2.1%.

With `CC(=O)N1c2ccc(S(=O)(=O)N3CCCC3)cc2CC1C(=O)Nc1cc(C)cc(C)c1` (stereo unspecified) as the compound, how does the inhibition read?
Its inhibition is inconclusive: -9.3%.

For `O=C(C/C=N/OCc1c(Cl)cccc1Cl)c1ccc(Cl)cc1`, which inhibition is on record?
Its inhibition is inconclusive: -10.4%.

Which inhibition does the source give for `CC(c1ccccc1)n1c(N2CCNCC2)nc2c1c(=O)[nH]c(=O)n2C` (stereo unspecified) here?
Its inhibition is inconclusive: 23.3%.

For `CCc1ccc(CCC(=O)Nc2ccc(Br)cc2)o1`, which inhibition is on record?
Its inhibition is inconclusive: -14.3%.

For `COc1ccc(-c2cc(=O)oc(-c3cccc(C)c3)n2)cc1`, which inhibition is on record?
Its inhibition is inconclusive: -45.8%.

Which inhibition does the source give for `Clc1ccccc1-c1nn2c(-c3ccncc3)nnc2s1` here?
Its inhibition is inactive: 9.1%.

`COc1ccc(CCNCCN2CCOCC2)cc1` was tested. Which inhibition did it give?
The inhibition was inconclusive: 9.6%.

With `O=C(CN1CCN(Cc2ccccc2)CC1)N1CCN(c2ccccc2)CC1` as the compound, how does the inhibition read?
Its inhibition is inconclusive: -13.3%.

How did the inhibition turn out when `NNC(=O)CS(=O)(=O)c1ccc(Cl)cc1` was run?
The inhibition was inconclusive: 125%.

Which inhibition does the source give for `Cc1cccc(NC(=O)CCN2C(=O)c3ccccc3C2=O)c1` here?
The inhibition was inconclusive: -14%.

`CC(C)Nc1cc(C(F)(F)F)nc(-c2ccccn2)n1` was tested. Which inhibition did it give?
The inhibition was inactive: -5.3%.

With `Cc1oc2nc(SCC(=O)NCCCO)nc(N)c2c1C` as the compound, how does the inhibition read?
The inhibition was inactive: 0.3%.
